In publication PMC12869240:
Results are given in words; binding and its absence hold for the method and conditions named. In cells and extracts the contact can be indirect. Some results given as binding are weak or reduced against the parent protein; the word gives no strength.

The chains behind the UniProt entries cited, without tags or fusion partners. Residues count along the entry.
UniProt Q15418: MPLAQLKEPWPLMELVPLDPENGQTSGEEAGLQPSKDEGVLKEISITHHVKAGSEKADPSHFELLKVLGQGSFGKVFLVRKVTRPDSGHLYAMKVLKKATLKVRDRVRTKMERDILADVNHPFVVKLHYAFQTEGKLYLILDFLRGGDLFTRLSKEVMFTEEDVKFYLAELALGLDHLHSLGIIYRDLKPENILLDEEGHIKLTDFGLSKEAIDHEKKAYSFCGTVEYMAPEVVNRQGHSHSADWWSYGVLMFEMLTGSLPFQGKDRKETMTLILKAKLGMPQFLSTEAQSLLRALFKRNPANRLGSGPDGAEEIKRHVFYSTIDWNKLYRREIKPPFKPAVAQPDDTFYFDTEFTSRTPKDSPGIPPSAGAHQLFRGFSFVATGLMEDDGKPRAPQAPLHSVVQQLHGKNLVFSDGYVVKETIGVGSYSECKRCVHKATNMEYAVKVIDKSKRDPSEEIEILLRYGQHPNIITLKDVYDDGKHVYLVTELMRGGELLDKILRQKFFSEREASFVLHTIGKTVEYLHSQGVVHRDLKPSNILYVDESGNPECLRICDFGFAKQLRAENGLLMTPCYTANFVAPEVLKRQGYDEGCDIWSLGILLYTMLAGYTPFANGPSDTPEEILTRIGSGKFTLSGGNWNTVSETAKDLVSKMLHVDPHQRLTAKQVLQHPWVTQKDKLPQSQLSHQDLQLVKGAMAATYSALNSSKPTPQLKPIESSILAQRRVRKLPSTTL
UniProt Q9Y4C0, residues 28-1643: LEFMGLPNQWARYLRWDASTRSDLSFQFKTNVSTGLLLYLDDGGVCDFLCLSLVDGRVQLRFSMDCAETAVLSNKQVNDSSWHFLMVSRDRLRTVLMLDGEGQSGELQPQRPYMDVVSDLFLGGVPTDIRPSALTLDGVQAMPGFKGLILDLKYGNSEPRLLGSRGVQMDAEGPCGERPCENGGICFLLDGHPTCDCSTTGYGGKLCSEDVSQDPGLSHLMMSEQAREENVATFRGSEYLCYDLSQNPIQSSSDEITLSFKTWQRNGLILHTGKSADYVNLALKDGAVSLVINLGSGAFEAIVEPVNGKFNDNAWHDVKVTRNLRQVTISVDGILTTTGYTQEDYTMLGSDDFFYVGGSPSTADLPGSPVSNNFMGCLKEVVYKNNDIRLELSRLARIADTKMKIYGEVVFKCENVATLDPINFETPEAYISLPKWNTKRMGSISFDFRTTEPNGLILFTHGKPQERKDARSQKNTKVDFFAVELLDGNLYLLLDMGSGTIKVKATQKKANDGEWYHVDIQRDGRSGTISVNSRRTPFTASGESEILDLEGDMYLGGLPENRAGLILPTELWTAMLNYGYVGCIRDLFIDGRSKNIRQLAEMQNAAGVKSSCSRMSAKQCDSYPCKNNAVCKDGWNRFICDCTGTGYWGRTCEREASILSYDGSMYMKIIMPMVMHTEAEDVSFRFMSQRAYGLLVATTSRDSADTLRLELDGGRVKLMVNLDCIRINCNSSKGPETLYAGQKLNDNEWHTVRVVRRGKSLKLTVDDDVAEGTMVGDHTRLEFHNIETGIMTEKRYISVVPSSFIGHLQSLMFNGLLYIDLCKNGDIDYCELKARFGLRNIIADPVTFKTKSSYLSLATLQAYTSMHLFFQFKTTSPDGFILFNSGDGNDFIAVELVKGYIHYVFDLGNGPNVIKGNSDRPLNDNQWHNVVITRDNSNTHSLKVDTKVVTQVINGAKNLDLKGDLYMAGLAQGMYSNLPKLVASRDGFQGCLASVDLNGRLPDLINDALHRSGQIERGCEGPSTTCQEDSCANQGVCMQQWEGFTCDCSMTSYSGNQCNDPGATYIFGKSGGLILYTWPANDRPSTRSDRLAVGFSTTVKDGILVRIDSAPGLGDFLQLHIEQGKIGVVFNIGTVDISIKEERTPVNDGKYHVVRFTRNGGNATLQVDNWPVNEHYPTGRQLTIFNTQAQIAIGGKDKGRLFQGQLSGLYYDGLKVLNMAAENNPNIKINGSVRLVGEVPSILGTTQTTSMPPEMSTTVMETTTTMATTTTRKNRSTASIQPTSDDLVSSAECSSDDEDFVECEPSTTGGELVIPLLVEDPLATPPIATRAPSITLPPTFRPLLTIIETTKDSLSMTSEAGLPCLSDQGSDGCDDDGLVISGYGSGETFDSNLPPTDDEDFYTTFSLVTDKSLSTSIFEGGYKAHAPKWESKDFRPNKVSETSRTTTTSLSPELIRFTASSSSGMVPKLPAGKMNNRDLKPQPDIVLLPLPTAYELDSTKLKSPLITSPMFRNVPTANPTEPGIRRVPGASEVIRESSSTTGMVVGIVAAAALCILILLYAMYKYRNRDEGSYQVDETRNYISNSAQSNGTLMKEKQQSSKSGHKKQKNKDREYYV

Legend:
[1] = target: Myc-tagged full-length RSK1 (UniProt Q15418); test: co-IP; lysates of singly transfected HEK-293T cells mixed in vitro; Myc-RSK1 and His-caspase-3 lysates in equal amount with incremental Flag-NRXN3 lysate (or increasing His-caspase-3 lysate, Fig. S4G); anti-Myc immunoprecipitation and IB
[2] = target: Myc-tagged full-length RSK1 (UniProt Q15418); test: co-IP; HEK-293T cells co-transfected with the tagged plasmids for 48 h; NP-40 lysis buffer; IP by anti-Myc, anti-His, anti-HA or as indicated, immunoblot; in some panels with co-expressed RSK1 and NRXN3
[3] = target: Flag-NRXN3 (neurexin-3) (UniProt Q9Y4C0); test: co-IP; HEK-293T cell lysates, IP and IB of endogenous proteins; Flag-NRXN3-expressing HEK-293T lysates with anti-Flag antibody

binding [1] | binding [2] | binding [3] | Substance
binds | binds |  | Flag-NRXN3 (neurexin-3) (from UniProt Q9Y4C0 28-1643)
 |  | binds | endogenous RSK1 in HEK-293T (from UniProt Q15418 1-735) (enzyme)
